Reference: article PMC7819943, “Rice protein-binding microarrays: a tool to detect cis-acting elements near promoter regions in rice”
This is one part of the list.

target: T1, OsSMF1 (Oryza sativa, UniProt Q6ZLB0 1-436); assay: protein-binding microarray (RPBM); PBS, 2% BSA, 51.3 ng/ul salmon testes DNA, 50 uM zinc acetate, 200 nM TF, 25 C, 1 h; high values mean tight binding; conditions: protein: recombinant; tags: N-terminal polyhistidine and DsRed monomer fusion (pET32a); chain copies: 2; label: CyDye5-dUTP incorporated in the synthesized complementary strand; 3' TTTTT single-stranded linker to array surface; dsDNA, one strand shown
T1 sequence: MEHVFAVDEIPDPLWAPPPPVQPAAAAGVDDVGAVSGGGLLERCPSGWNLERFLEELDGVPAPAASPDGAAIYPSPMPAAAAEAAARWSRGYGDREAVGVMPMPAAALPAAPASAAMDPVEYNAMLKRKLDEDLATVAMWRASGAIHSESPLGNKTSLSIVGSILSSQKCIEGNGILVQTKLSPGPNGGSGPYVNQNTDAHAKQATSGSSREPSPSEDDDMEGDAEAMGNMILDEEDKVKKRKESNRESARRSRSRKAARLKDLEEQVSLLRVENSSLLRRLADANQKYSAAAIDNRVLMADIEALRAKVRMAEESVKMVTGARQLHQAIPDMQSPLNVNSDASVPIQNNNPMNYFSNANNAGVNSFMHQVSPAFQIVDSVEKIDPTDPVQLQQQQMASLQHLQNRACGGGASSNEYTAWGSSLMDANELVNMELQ
Summary of the method: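 The binding signal for each feature is its fluorescence intensity in arbitrary units. An Axon 4000B scanner was used to read a custom Agilent array that had been made double-stranded with Cy5-dUTP primer extension, blocked with 2% BSA, incubated at 25 °C for 1 h with 200 nM protein in PBS, 2% BSA, salmon testes DNA and 50 µM zinc acetate, and washed. The protein was an N-terminal polyhistidine–DsRed transcription factor fusion from E. coli BL21-CodonPlus, purified on Ni–NTA.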

Sequence	binding signal
AAAGACAGCTCGAAGATACATAGATGACACGGAAACAGGGCGGAGTCACCTAGTGCAG	4410 fluorescence intensity (a.u.)
ACGATTTTACGAATGCTGACGCCTTTCATCACCAATCTACCGGAGTCACCTAGTGCAG	3850 fluorescence intensity (a.u.)
AAATAATACACGTCATAGACCCATAGAAGATTCTCCCTTTCGGAGTCACCTAGTGCAG	18600 fluorescence intensity (a.u.)
AGTTCACCACCACCGCCACGCGCGCGCTGTCTCCAAACACCGGAGTCACCTAGTGCAG	4190 fluorescence intensity (a.u.)
CAATTATGTGCATATTCTTAGATGACGTAAAGAGCTCCGGCGGAGTCACCTAGTGCAG	4100 fluorescence intensity (a.u.)
CTAAGCTGTGTACTACTCCTCAAGATGACACCACCACCATCGGAGTCACCTAGTGCAG	3780 fluorescence intensity (a.u.)
CACCACACTCAAGATCAATGTCGCGATCCACGGCGGCGACCGGAGTCACCTAGTGCAG	3380 fluorescence intensity (a.u.)
GCACGGACGGACGGACTCACGCACGCACTCACGCATACATCGGAGTCACCTAGTGCAG	3360 fluorescence intensity (a.u.)
CTCCAACGACTGCCACGATTGCGTCACCATCTTCGTCTTCCGGAGTCACCTAGTGCAG	13600 fluorescence intensity (a.u.)
GTAGATTGGGATCCAGGGAAGGGGAGCGGACGGTTCGAGTCGGAGTCACCTAGTGCAG	24500 fluorescence intensity (a.u.)
TGTGCTGTTCGTGCTGATTCGGACGCGTCGGCAGCTGGTGCGGAGTCACCTAGTGCAG	4800 fluorescence intensity (a.u.)
TTGAACAAAAGAACATACCCTTAATCACATTAGTCGAATTCGGAGTCACCTAGTGCAG	3250 fluorescence intensity (a.u.)
GCTTATCGTGTCACCGCGAGAGGATAGGAACGACACACACCGGAGTCACCTAGTGCAG	3760 fluorescence intensity (a.u.)
GTTATTAGCGTCGTGATCCAATATGACGGTGCCAATGATACGGAGTCACCTAGTGCAG	4450 fluorescence intensity (a.u.)
GAGAGACTTTGAGATGGCGTGTCTACTCGGAAGGCGTAGGCGGAGTCACCTAGTGCAG	3160 fluorescence intensity (a.u.)
GACAGTGGTTTTGGCTGACGTGGCGCATACGTGGCTAATTCGGAGTCACCTAGTGCAG	12700 fluorescence intensity (a.u.)
AAATATTGACGTTCTCTTTTACAGTTGCTATTGTTGTGCTCGGAGTCACCTAGTGCAG	3230 fluorescence intensity (a.u.)
GGCGACTGGGTGCGGTTGCACTCCCGCGTAAAACACGTCACGGAGTCACCTAGTGCAG	7400 fluorescence intensity (a.u.)
ACCAAATGTTATTTTATGAGTCAACAGTCTAAATCCTTCACGGAGTCACCTAGTGCAG	4570 fluorescence intensity (a.u.)
CAACGGAACGCATGCAAGTATGTACGTGGTCGTTTCAGTCCGGAGTCACCTAGTGCAG	4360 fluorescence intensity (a.u.)
CGTCCACGTGGCATGCCACATCAGCACCACGTATGATACTCGGAGTCACCTAGTGCAG	32900 fluorescence intensity (a.u.)
AAGACCAGCCACGTGTGCACGGACGTCAGGGCATCTACCGCGGAGTCACCTAGTGCAG	12000 fluorescence intensity (a.u.)
TCTGCTTAAATCATGTGCTATACCGGTGTAAATACAGTTGCGGAGTCACCTAGTGCAG	3330 fluorescence intensity (a.u.)

Random excerpt: 2 records from the list
Sequence	binding signal
AAAGACAGCTCGAAGATACATAGATGACACGGAAACAGGGCGGAGTCACCTAGTGCAG	4410 fluorescence intensity (a.u.)
GACAGTGGTTTTGGCTGACGTGGCGCATACGTGGCTAATTCGGAGTCACCTAGTGCAG	12700 fluorescence intensity (a.u.)
